No constants are given. Whether binding was seen depends on the method and setting. Binding seen in cells or lysates may run through a third protein. Some results given as binding are weak or reduced against the parent protein; the word gives no strength.
Tests used:
[1] = molecular target: somatostatin receptor subtype 2 (human (endogenous in MCF-7, MDA-MB231 and T47D)) (UniProt P30874); assay: condition: only MCF-7 cells untreated or treated with U50488HCl alone; co-IP; MCF-7 cells, untreated control or treated with U50488HCl (1 μM) alone, 15 min at 37°C; membrane protein in RIPA buffer; anti-SSTR2 immunoprecipitate blotted for κOR
[2] = molecular target: somatostatin receptor subtype 2 (human (endogenous in MCF-7, MDA-MB231 and T47D)) (UniProt P30874); assay: co-IP; MDA-MB231 cells, control or treated 15 min at 37°C with L-779,976 (10 nM), DAMGO, Deltorphin-II or U50488HCl (1 μM) alone or in combination; 200 μg membrane protein in RIPA buffer, pH 8.0; anti-SSTR2 immunoprecipitate on protein A/G-agarose, 4°C, blotted for ORs
[3] = molecular target: somatostatin receptor subtype 2 (human (endogenous in MCF-7, MDA-MB231 and T47D)) (UniProt P30874); assay: co-IP; T47D cells, control or treated 15 min at 37°C with L-779,976 (10 nM), DAMGO, Deltorphin-II or U50488HCl (1 μM) alone or in combination; 200 μg membrane protein in RIPA buffer, pH 8.0; anti-SSTR2 immunoprecipitate on protein A/G-agarose, 4°C, blotted for ORs
[4] = molecular target: somatostatin receptor subtype 2 (human (endogenous in MCF-7, MDA-MB231 and T47D)) (UniProt P30874); assay: co-IP; MCF-7 cells, control or treated 15 min at 37°C with L-779,976 (10 nM), DAMGO, Deltorphin-II or U50488HCl (1 μM) alone or in combination; 200 μg membrane protein in RIPA buffer, pH 8.0; anti-SSTR2 immunoprecipitate on protein A/G-agarose, 4°C, blotted for ORs
[5] = molecular target: somatostatin receptor subtype 2 (human (endogenous in MCF-7, MDA-MB231 and T47D)) (UniProt P30874); assay: condition: only MDA-MB231 cells treated with agonists; co-IP; MDA-MB231 cells treated with agonists (L-779,976 10 nM, Deltorphin-II 1 μM), 15 min at 37°C; membrane protein in RIPA buffer; anti-SSTR2 immunoprecipitate blotted for δOR
[6] = molecular target: somatostatin receptor subtype 2 (human (endogenous in MCF-7, MDA-MB231 and T47D)) (UniProt P30874); assay: condition: only T47D cells in basal state or treated with L-779,976 alone; co-IP; T47D cells, basal or treated with L-779,976 (10 nM) alone, 15 min at 37°C; membrane protein in RIPA buffer; anti-SSTR2 immunoprecipitate blotted for δOR
[7] = molecular target: somatostatin receptor subtype 2 (human (endogenous in MCF-7, MDA-MB231 and T47D)) (UniProt P30874); assay: co-IP; T47D cells, untreated control; membrane protein in RIPA buffer; anti-SSTR2 immunoprecipitate blotted for μOR
[8] = molecular target: somatostatin receptor subtype 2 (human (endogenous in MCF-7, MDA-MB231 and T47D)) (UniProt P30874); assay: condition: only MDA-MB231 cells treated with DAMGO alone or in combination with L-779,976; co-IP; MDA-MB231 cells treated with DAMGO (1 μM) alone or in combination with L-779,976 (10 nM), 15 min at 37°C; membrane protein in RIPA buffer; anti-SSTR2 immunoprecipitate blotted for μOR

Chains of the proteins cited; added tags and fusions are not shown. Lines headed by an entry give the natural chain unless they say otherwise; changes in a name come on top.
UniProt P30874: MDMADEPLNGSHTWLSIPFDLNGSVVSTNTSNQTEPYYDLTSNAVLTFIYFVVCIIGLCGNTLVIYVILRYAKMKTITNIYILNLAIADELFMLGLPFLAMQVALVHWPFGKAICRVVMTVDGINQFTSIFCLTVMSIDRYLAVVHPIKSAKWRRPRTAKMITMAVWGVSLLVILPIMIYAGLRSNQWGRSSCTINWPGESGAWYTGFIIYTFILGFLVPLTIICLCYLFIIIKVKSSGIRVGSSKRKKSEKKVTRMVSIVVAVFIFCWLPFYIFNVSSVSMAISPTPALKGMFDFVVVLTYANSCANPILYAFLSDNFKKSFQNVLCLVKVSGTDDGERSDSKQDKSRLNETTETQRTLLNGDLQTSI
UniProt P41145: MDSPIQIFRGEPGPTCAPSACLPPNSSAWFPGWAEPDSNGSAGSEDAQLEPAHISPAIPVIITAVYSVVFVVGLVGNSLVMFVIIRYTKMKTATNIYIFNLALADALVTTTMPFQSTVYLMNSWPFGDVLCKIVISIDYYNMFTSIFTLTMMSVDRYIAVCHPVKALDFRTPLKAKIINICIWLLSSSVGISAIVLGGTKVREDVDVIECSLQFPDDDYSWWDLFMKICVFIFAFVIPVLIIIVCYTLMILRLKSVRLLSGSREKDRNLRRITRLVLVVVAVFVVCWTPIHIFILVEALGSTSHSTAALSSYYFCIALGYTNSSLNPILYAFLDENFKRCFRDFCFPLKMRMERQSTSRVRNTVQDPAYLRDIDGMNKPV
UniProt P35372: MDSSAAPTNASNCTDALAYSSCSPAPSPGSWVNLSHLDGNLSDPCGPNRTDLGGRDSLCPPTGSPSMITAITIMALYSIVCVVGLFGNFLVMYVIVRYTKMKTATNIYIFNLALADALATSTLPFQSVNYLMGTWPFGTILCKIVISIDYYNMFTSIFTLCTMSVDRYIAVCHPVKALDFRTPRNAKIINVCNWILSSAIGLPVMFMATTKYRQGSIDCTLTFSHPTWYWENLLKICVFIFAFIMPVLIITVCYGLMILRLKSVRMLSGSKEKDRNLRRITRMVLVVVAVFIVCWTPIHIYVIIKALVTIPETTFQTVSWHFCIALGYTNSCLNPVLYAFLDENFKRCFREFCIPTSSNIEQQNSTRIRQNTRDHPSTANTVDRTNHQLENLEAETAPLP

binding [1]	binding [2]	binding [3]	binding [4]	binding [5]	binding [6]	binding [8]	Substance	binding [7]
no binding	binds	binds	binds				κ opioid receptor (from UniProt P41145 1-380)	
	binds	binds	binds	no binding	no binding		δ opioid receptor (from UniProt P41143 1-372)	
	binds weakly	binds	binds			no binding	μ opioid receptor (from UniProt P35372 1-400)	no binding (condition: untreated control T47D cells)
